Reference: patent EP3543697A1

Target: BCR with a non-CLL-Subset 2 HC / a non-CLL-Subset 2 LC on TKO cells
Test: FACS binding assay on TKO cells with non-CLL-BCR (Fig. 1E)

B1: AVA-mAb01 (specific monoclonal antibody against CLL Subset-2 BCR) (antibody, V domains shown)
VH: QVQLQQSGPGLVQPSQSLSITCTVSGFSLTSYGIHWVRQSPGKGLEWLGVIWRGGGTDSNAAFMSRLSITKDNSKSQVFFKMNSLQADDTAIYYCARSRYDEEESMNYWGQGTSVTVSS
VL: QIVLTQSPASLSASVGETVTITCRASGNIHSYLAWYQQKQGKSPQLLVYNAKTLADGVPSRFSGSGSGTQYSLKINSLQPEDFGSYYCQHFWNTPPTFGAGTKLELK
binding: no binding

Results are given in words; binding and its absence hold for the method and conditions named.
